From article PMC11965403
These are yes or no findings as the source states them, for the method shown. In cells and extracts the contact can be indirect. Here binding means that the protein was enriched with, or labelled near, the bait; the list need not be complete.

Amino acid sequences for entries named in this document (tags omitted).
UniProt Q86U44: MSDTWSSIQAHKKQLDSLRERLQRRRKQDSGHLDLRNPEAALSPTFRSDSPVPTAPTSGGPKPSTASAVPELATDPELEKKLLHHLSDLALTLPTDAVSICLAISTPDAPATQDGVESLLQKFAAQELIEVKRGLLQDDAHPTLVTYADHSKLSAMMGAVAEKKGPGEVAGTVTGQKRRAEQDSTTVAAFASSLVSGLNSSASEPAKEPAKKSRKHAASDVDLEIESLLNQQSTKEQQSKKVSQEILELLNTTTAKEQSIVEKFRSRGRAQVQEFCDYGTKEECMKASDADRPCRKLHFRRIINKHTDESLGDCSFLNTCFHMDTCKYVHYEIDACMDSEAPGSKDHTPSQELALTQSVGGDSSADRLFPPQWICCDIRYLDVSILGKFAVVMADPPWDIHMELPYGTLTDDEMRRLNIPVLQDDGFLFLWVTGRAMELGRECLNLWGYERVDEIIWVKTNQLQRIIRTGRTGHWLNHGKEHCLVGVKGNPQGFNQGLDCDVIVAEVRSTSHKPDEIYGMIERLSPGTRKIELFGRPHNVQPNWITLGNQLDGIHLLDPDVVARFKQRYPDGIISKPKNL
UniProt P19474: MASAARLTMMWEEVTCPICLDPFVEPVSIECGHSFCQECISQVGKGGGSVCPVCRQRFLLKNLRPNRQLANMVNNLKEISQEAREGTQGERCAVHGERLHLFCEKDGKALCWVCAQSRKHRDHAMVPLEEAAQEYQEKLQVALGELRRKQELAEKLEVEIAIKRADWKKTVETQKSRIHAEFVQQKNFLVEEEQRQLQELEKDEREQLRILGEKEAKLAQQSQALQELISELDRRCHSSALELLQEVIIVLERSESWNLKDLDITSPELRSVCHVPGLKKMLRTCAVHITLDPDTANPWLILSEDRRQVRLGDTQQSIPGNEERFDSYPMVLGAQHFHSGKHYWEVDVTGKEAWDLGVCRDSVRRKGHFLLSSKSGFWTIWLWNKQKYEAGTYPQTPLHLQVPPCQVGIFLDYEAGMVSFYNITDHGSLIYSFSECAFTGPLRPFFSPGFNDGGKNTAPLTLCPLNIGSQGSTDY

Biological target: endogenous METTL3 (human (endogenous in pancreatic cancer cells)) (UniProt Q86U44)
Experiment: affinity purification with mass spectrometry; METTL3-associated protein complexes isolated from pancreatic cancer cells by co-IP, analysed by LC-MS/MS; three independent analyses

- binding: binds
Substance: endogenous TRIM21 (from UniProt P19474 1-475)
